# Test results reported in patent US8753673B2, “Liposome composition for delivery of a therapeutic agent to eyes” (Taiwan Liposome Co. Ltd., priority 2006, dated 2014).
# For at least one compound, name, drawing or mass did not settle the structure.
# Experiment: Bio-distribution of radioactivity in normal and CNV eyes of unilateral-CNV rats (γ scintillation counting after perfusion)
# Assay type: in vivo, Brown Norway (BN) pigmented rats
# Settings: 24 and 48 hours post-injection
# Procedure: In the process of monitoring the behavior of these animals, 2 to 3 out of the 10 rats were unable to walk straight. This abnormal behavior might be related to vision loss of the right eye as the result of laser photocoagulation. There were no other noticeable side effects observed in these rats.
# After the SPECT, all rats were sacrificed and perfused with normal saline containing 2 mM EDTA. Animals were dissected to isolate both normal (left) and CNV (right) eyes. The isolated eyes were weighted and radioactivity associated with the eyes was counted by a γ scintillation counter (Cobra II Autogamma, Packed, USA). The uptake of radiotracer in the eyes or other tissues was expressed in counts per minute (cpm) with decay correction and was normalized as percent of injection dose per gram tissue (% ID/g).
# The experiment determines the biodistribution of In^111, a small molecular marker and In^111-encapsulated liposome, a lipid nano-particle in an experimental CNV model. Ten unilateral CNV rats were randomly divided into two groups with 4 and 6 rats, respectively. Group 1 received 250 μCi of In^111-DTPA and group 2 received 250 μCi of In^111-encapsulated liposome by intravenous injection.
structure (smiles),measurement,value
O=C([O-])CN(CCN(CC(=O)[O-])CC(=O)[O-])CCN(CC(=O)[O-])CC(=O)[O-].[111In+3].[H+].[H+] [In^111-DTPA],levels of In^111 detected in both eyes,0.13±0.05 to 0.16±0.04
